Experimental data published in publication PMC12514821.

B1: SFB-PDLIM4 (330AA) (protein, UniProt P50479 1-330)
chain: MPHSVTLRGPSPWGFRLVGGRDFSAPLTISRVHAGSKAALAALCPGDLIQAINGESTELMTHLEAQNRIKGCHDHLTLSVSRPEGRSWPSAPDDSKAQAHRIHIDPEIQDGSPTTSRRPSGTGTGPEDGRPSLGSPYGQPPRFPVPHNGSSEATLPAQMSTLHVSPPPSADPARGLPRSRDCRVDLGSEVYRMLREPAEPVAAEPKQSGSFRYLQGMLEAGEGGDWPGPGGPRNLKPTASKLGAPLSGLQGLPECTRCGHGIVGTIVKARDKLYHPECFMCSDCGLNLKQRGYFFLDERLYCESHAKARVKPPEGYDVVAVYPNAKVELV
B2: SFB-PDLIM4 (1-260AA) (domain or fragment, UniProt P50479 1-260)
chain: MPHSVTLRGPSPWGFRLVGGRDFSAPLTISRVHAGSKAALAALCPGDLIQAINGESTELMTHLEAQNRIKGCHDHLTLSVSRPEGRSWPSAPDDSKAQAHRIHIDPEIQDGSPTTSRRPSGTGTGPEDGRPSLGSPYGQPPRFPVPHNGSSEATLPAQMSTLHVSPPPSADPARGLPRSRDCRVDLGSEVYRMLREPAEPVAAEPKQSGSFRYLQGMLEAGEGGDWPGPGGPRNLKPTASKLGAPLSGLQGLPECTRCGH
B3: SFB-PDLIM4 (80-260AA) (domain or fragment, UniProt P50479 80-260)
chain: VSRPEGRSWPSAPDDSKAQAHRIHIDPEIQDGSPTTSRRPSGTGTGPEDGRPSLGSPYGQPPRFPVPHNGSSEATLPAQMSTLHVSPPPSADPARGLPRSRDCRVDLGSEVYRMLREPAEPVAAEPKQSGSFRYLQGMLEAGEGGDWPGPGGPRNLKPTASKLGAPLSGLQGLPECTRCGH
B4: SFB-PDLIM4 (80-330AA) (domain or fragment, UniProt P50479 80-330)
chain: VSRPEGRSWPSAPDDSKAQAHRIHIDPEIQDGSPTTSRRPSGTGTGPEDGRPSLGSPYGQPPRFPVPHNGSSEATLPAQMSTLHVSPPPSADPARGLPRSRDCRVDLGSEVYRMLREPAEPVAAEPKQSGSFRYLQGMLEAGEGGDWPGPGGPRNLKPTASKLGAPLSGLQGLPECTRCGHGIVGTIVKARDKLYHPECFMCSDCGLNLKQRGYFFLDERLYCESHAKARVKPPEGYDVVAVYPNAKVELV
B5: SFB-PDLIM4 (250-330AA) (domain or fragment, UniProt P50479 250-330)
chain: QGLPECTRCGHGIVGTIVKARDKLYHPECFMCSDCGLNLKQRGYFFLDERLYCESHAKARVKPPEGYDVVAVYPNAKVELV
B6: SFB-PDLIM4 (1-88AA) (domain or fragment, UniProt P50479 1-88)
chain: MPHSVTLRGPSPWGFRLVGGRDFSAPLTISRVHAGSKAALAALCPGDLIQAINGESTELMTHLEAQNRIKGCHDHLTLSVSRPEGRSW

These binders were tested against HSP70-HA (assay: co-IP; HEK-293T cells transfected with SFB-PDLIM4 constructs and HSP70-HA; lysates incubated overnight at 4 °C with antibody and S-Protein Agarose or Protein A/G resin, washed with TBS, western blotting).

Binder	binding
B1	binds
B2	binds
B3	binds
B4	binds
B5	binds
B6	no binding

What follows are binders tested against HSP70-HA (assay: co-IP; MKN45 cells with exogenous SFB-PDLIM4 and HSP70; same procedure as in HEK-293T cells).

Binder	binding
B1	binds

No constants are given. Whether binding was seen depends on the method and setting. Binding seen in cells or lysates may run through a third protein. A result given as binding can be weak or reduced; the word gives no strength.
